Results on 2 molecules are retold here after US20210122813A1 (Kyowa Kirin, published 2021).

Results are given in words; binding and its absence hold for the method and conditions named. Some binding calls cover weakened binding; strength is not graded here.

Assay [1] concerns the target T1, human BMP9/BMP10 heterodimer present in human serum (human) (UniProt O95393).
T1 sequence 1: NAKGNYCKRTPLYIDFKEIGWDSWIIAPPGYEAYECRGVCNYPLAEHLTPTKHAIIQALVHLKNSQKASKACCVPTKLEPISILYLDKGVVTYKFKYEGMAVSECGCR
T1 sequence 2: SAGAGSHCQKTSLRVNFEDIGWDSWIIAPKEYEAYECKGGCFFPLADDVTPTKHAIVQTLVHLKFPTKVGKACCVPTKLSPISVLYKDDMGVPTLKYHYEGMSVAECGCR
Description: sandwich ELISA: 10D5 immobilized, human serum 1-16%, detection with biotinylated 12H3 antibody.

Assay [2] deals with T1, human BMP9/BMP10 heterodimer present in human serum (human). In words: sandwich ELISA: biotinylated 12H3 (50 ng/mL) detects the material captured from human serum (0-16%) by immobilized anti-BMP9 antibody 10D5.
Assay [3] has as its target T2, human BMP10 mature dimer (manufactured by R & D Systems, Inc., Cat #2926-BP) (human) (UniProt O95393).
T2 sequence: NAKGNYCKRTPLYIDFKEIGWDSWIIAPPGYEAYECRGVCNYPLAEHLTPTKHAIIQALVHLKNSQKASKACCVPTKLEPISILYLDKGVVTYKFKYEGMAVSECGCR
Description: SPR (Biacore T100). (Surface plasmon resonance follows binding to a sensor surface in real time, without labels.)

B1: 12H3 antibody (antibody, V domains shown)
VH: QVQLKETGPDLVQLTQTLSITCTVSGFSLSTYNVHWVRQPPGKGLEWMGAMWNGGGINYNSAFKSRLSISRDTSKSQVFLKMNSLQTDDTAKYFCARFGYGFDYWGQGVMVTVSS
VL: ETVMTQSPTSMSTSIGERVTLNCKASQSVGINVDWYQRTPGQSPKLLIHGASNRHTGVPDRFTGSGFGRDFTLTISNVEAEDLTIYYCLQYGSIPLTFGAGTKLELI
On to B1, for which the binding entry in assay [1] and in assay [2] was “binds” each time.

B2: 12H3 chimeric antibody (antibody, V domains shown)
VH: QVQLKETGPDLVQLTQTLSITCTVSGFSLSTYNVHWVRQPPGKGLEWMGAMWNGGGINYNSAFKSRLSISRDTSKSQVFLKMNSLQTDDTAKYFCARFGYGFDYWGQGVMVTVSS
VL: ETVMTQSPTSMSTSIGERVTLNCKASQSVGINVDWYQRTPGQSPKLLIHGASNRHTGVPDRFTGSGFGRDFTLTISNVEAEDLTIYYCLQYGSIPLTFGAGTKLELI
notes: also called ch12H3 antibody
Regarding B2, the binding entry in assay [3] is listed as “binds”.
